# Measured values from PubChem BioAssay AID1671190 (National Center for Advancing Translational Sciences (NCATS), 2021).
# Sequences of proteins named here, by UniProt entry; tags and fusion partners are left off. A change or cut given only in a name is not applied to a line headed by its entry.
# UniProt P18054: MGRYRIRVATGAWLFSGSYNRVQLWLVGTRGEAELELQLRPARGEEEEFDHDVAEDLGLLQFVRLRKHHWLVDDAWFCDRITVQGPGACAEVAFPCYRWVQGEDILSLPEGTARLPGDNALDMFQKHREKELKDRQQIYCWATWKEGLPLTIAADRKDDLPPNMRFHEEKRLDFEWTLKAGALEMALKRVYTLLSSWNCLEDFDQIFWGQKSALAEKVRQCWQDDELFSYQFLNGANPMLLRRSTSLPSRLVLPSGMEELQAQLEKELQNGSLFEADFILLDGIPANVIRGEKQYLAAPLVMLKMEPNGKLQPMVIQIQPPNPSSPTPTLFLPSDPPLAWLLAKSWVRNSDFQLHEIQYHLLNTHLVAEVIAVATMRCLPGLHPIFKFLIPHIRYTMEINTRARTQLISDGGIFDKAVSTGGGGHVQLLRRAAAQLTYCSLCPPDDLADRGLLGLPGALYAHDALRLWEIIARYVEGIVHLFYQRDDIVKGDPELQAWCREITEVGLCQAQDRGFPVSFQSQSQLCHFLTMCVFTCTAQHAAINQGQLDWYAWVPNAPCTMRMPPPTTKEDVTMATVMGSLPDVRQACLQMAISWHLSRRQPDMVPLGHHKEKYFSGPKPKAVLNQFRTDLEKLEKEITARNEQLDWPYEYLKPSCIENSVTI
# In all, about 580,000 compounds went through this assay and about 6,100 (1.1%) were called active. The inconclusive results got no clear call from the source; some entries with a clear call stand among them for comparison. Calls come from the whole dose curve; as a rule, active = well fitted inhibition curve with a large enough effect; inconclusive = small, poorly fitted or top-dose-only effect, or another doubt; inactive = no such curve, though single readings can be large or run the other way. A potency beside an inconclusive call is a rough fit, not a confirmed value.
# Molecular target: Polyunsaturated fatty acid lipoxygenase ALOX12 (Homo sapiens) (UniProt P18054)
# Test: Primary qHTS assay for inhibitors of human arachidonate 12S-lipoxygenase (ALOX12): Round 2
# Conditions: purified 12hLO, xylenol orange hydroperoxide absorbance; activity change, negative = inhibition: at 108 µM (top of the series) unless noted
# Method in brief: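 Purified human 12hLO (150 nM final) in 25 mM Hepes, 0.01% Triton X-100, pH 7.0 was preincubated 15 min at room temperature with compound. Then 40 uM arachidonic acid was added, 30 min. Hydroperoxide was read by Fe-XO absorbance ratio 573/405 nm.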
# % is set by controls: 0 for no effect and ±100 for the full control effect; potency is the fitted concentration of half-maximal effect.
Compound,Potency,"activity change, negative = inhibition"
O=C(O)c1cccc(CSc2cc(Cl)ccc2Cl)c1,"inconclusive: 50.1 µM [inhibitor, partial curve, poor fit]",–
CCc1ccc(NC(=O)C(C)OC(=O)c2ccc(NS(=O)(=O)c3ccc(C)c([N+](=O)[O-])c3)cc2)cc1 (stereo not given),"inconclusive: 50.1 µM [inhibitor, partial curve, poor fit]",–
COc1ccc(OCC(=O)Nc2ccc(S(=O)(=O)Nc3nc(C)cc(C)n3)cc2)cc1,inactive,–
CC(C)CNCc1ccc(-c2ccccc2)o1,"inconclusive: 100 µM [inhibitor, single point]",–
Cc1ccc(N2CCN(C(=O)c3cnn(-c4ccc(C)c(C)c4)c3C3CCNCC3)CC2)c(C)c1,"inconclusive: 44.7 µM [inhibitor, partial curve, poor fit]",–
NC(=O)CSc1oc(-c2cccs2)nc1S(=O)(=O)c1ccccc1,"inconclusive: 39.8 µM [inhibitor, partial curve, poor fit]",–
S=C(Nc1ccc2c(c1)OCCO2)Nc1ccccc1Cl,"inconclusive: 50.1 µM [inhibitor, partial curve, poor fit]",–
CCc1ccc(OCC(=O)Nc2ccc3oc(-c4ccccc4)nc3c2)c(-n2cnnc2)c1,"inconclusive: 100 µM [inhibitor, single point]",–
O=C1CN(C(=O)CNCc2ccc(Cl)cc2)c2ccccc2N1,"inconclusive: 14.1 µM [inhibitor, full curve, poor fit]",–
Cc1cc(C)nc(-n2nc(C)c(Sc3ccc(F)cc3)c2N)n1,"inconclusive: 56.2 µM [inhibitor, partial curve, poor fit]",–
CCN(Cc1ccncc1)Cc1ccc(OC)c(OC)c1,"inconclusive: 0.1 µM [inhibitor, full curve, poor fit]",–
CCC(CC)c1nnc(NC(=O)COc2ccc3c(C)cc(=O)oc3c2)s1,"inconclusive: 31.6 µM [inhibitor, single point]",–
CC(NC(=O)/C=C/c1ccc(Cl)cc1Cl)C1CC2CCC1C2 (stereo not given),"inconclusive: 89.1 µM [inhibitor, single point]",–
Cc1ccc(C2C(C=Nc3c(C)n(C)n(-c4ccccc4)c3=O)=C(c3ccccc3)Oc3ccccc32)cc1 (stereo not given),inactive,–
O=C(Nc1ccc(N2CCOCC2)cc1)Nc1ccc(Cl)c(Cl)c1,"inconclusive: 44.7 µM [inhibitor, partial curve, poor fit]",–
CSc1nnc2c3c4c(sc3nc(-n3nc(C)cc3C)n12)COC(C)(C)C4,inactive,–
O=C(CCc1ccc(S(=O)(=O)NC2CCCCC2)cc1)Nc1ccccc1,inactive,–
CC(C)(C)C(=O)Nc1ccc(N=Nc2ccccc2)cc1,inactive,–
CC(C)c1cc(C(=O)N2Cc3ccc(CN4CCN(C)CC4)cc3C2)c(O)cc1O,"inconclusive: 21.7 µM [inhibitor, partial curve, poor fit]",–
CN(C)CCCSc1nc(N2CCOCC2)c2c(c1C#N)CCCC2,active: 0.501 µM,–

Compound,Potency,"activity change, negative = inhibition"
CN(C)c1cccc(CNC(=O)c2ccc3sc([C@@H]4O[C@H](CO)[C@H](O)[C@H](O)[C@H]4O)nc3c2)c1,"inconclusive: 12.6 µM [inhibitor, full curve]",–
O=C(NCc1cccs1)c1cccnc1SCCS(=O)(=O)c1ccc(C(F)(F)F)cn1,"inconclusive: 100 µM [inhibitor, partial curve, poor fit]",–
O=C(c1cn[nH]c1-c1ccc(Cl)cc1)N1CCCCC1,"inconclusive: 126 µM [inhibitor, single point]",–
CC(C)NC(=O)N[C@H]1CCN2C(=O)c3cc(-c4ccsc4)ccc3NC(=O)[C@@H]2C1,"inconclusive: 22.4 µM [inhibitor, full curve, poor fit]",–
CCCCN(CC)S(=O)(=O)c1ccc(C(=O)N(CCCN(C)C)c2nc3cc(C)cc(C)c3s2)cc1,"inconclusive: 56.2 µM [inhibitor, partial curve, poor fit]",–
Cc1cc(OCC(=O)O)c(C)c2c1CC[C@@H]([C@H](C)C(=O)NCc1ccccc1)C2,inactive,–
COc1ccc(Nc2cc(C(=O)NC3CCCC3)c3ccccc3n2)cc1,"inconclusive: 224 µM [inhibitor, partial curve, poor fit]",–
CS(=O)(=O)N1CCc2cc(C(=O)N3CCN(c4ccccc4F)CC3)ccc21,"inconclusive: 100 µM [inhibitor, partial curve, poor fit]",–
COc1cccc(C(=O)/C=C/Nc2ccc(S(=O)(=O)Nc3cc(OC)nc(OC)n3)cc2)c1,inactive,–
CNc1c(NC(=O)Nc2ccccc2C(F)(F)F)c(=O)oc2ccccc12,"inconclusive: 63.1 µM [inhibitor, partial curve, poor fit]",–
CCOC(CCn1c(SCc2cccc([N+](=O)[O-])c2)nc2ccccc2c1=O)OCC,inactive,–
CC(C)c1cccc(NC(=O)CN2C(=O)NC3(CCCCC3)C2=O)c1,inactive,–
O=C(Nc1ccc(O)c(-c2nc3ccccc3o2)c1)c1cccnc1,"inconclusive: 79.4 µM [inhibitor, single point]",–
Cc1cc2nc(-c3cccc(Br)c3)c(Cc3ccccc3)n2c(C)c1Br,"inconclusive: 63.1 µM [inhibitor, partial curve, poor fit]",–
COc1ccccc1CN(C)CC(=O)Nc1ccc(Cl)cc1C(F)(F)F,"inconclusive: 0.891 µM [inhibitor, full curve, poor fit]",–
N#CC(C#N)=C1C=C2C=C(N3CCOCC3)CCC2CC1 (stereo not given),"inconclusive: 50.1 µM [inhibitor, partial curve, poor fit]",–
Cc1cc2oc(=O)cc(CN3CCN(S(=O)(=O)c4ccc5c(c4)OCCO5)CC3)c2cc1C,"inconclusive: 112 µM [inhibitor, single point]",–
COc1ccc(C)cc1NC(=O)c1ccccc1OCC(N)=O,"inconclusive: 79.4 µM [inhibitor, partial curve, poor fit]",–
O=C1NC(=Nc2ccc(O)cc2)S/C1=C/c1ccco1,"inconclusive: 50.1 µM [inhibitor, partial curve, poor fit]",–
NS(=O)(=O)c1ccc(-n2ncc3c(=O)[nH]c(SCC(=O)Nc4nccs4)nc32)cc1,"inconclusive: 35.5 µM [inhibitor, partial curve, poor fit]",–

Compound,Potency,"activity change, negative = inhibition"
Cc1ccc(Cl)c(OCC(=O)NCc2ccco2)c1,"inconclusive: 56.2 µM [inhibitor, partial curve, poor fit]",–
O=C1c2ccccc2C(Nc2ccc(S(=O)(=O)N3CCOCC3)cc2)N1c1ccccn1 (stereo not given),"inconclusive: 100 µM [inhibitor, partial curve, poor fit]",–
Cc1ccc2[nH]c3c(c2c1)CCCC3NCC12CC3CC(CC(C3)C1)C2 (stereo not given),"inconclusive: 50.1 µM [inhibitor, partial curve, poor fit]",–
O=C(CCCc1c[nH]c2ccccc12)NCc1ccc(Cl)cc1,"inconclusive: 50.1 µM [inhibitor, partial curve, poor fit]",–
O=C(CN1C(=O)c2ccccc2C1=O)c1ccccc1,inactive,–
CC[C@H]1CN2CCc3cc(OC)c(OC)cc3C2C[C@@H]1C[C@H]1NCCc2cc(OC)c(OC)cc21 (stereo not given in full),"inconclusive: 112 µM [inhibitor, partial curve, poor fit]",–
CCCOc1ccc2c(c1)C(=NN=C(N)N)c1cc(OCCC)ccc1-2,"inconclusive: 50.1 µM [inhibitor, partial curve, poor fit]",–
COc1cccc(CN2C[C@@H]3C(C(=O)O)[C@@H]3C2)c1OCCn1ccnc1 (stereo not given in full),"inconclusive: 14.1 µM [inhibitor, partial curve]",–
COCCN1C(=O)C(=O)/C(=C(/O)c2ccc(OC(C)C)c(C)c2)C1c1ccc(Br)cc1 (stereo not given),"inconclusive: 44.7 µM [inhibitor, partial curve, poor fit]",–
CCN(CC)S(=O)(=O)c1ccc(Cl)c(NC(=O)CSc2nnc(C3CC3)n2C2CC2)c1,"inconclusive: 56.2 µM [inhibitor, partial curve, poor fit]",–
CCOC(=O)N1CCN(c2ccc(C(=O)O)cc2NS(=O)(=O)c2ccc(OC)c(Cl)c2)CC1,"inconclusive: 10 µM [inhibitor, full curve, poor fit]",–
CC(C)[C@H](NC(=O)[C@H](C(C)C)n1nnc2ccccc2c1=O)C(=O)O,–,inconclusive: -30.1% [inhibitor]
O=C(Cc1ccccc1)NC(=S)Nc1cccc(C(F)(F)F)c1,"inconclusive: 44.7 µM [inhibitor, single point]",–
Cc1nn(Cc2ccc(Cl)cc2Cl)c(C)c1NC(=O)Cn1nc([N+](=O)[O-])c(Cl)c1C,"inconclusive: 6.31 µM [inhibitor, full curve, poor fit]",–
CC(C)C[C@@H](COCc1ccc([N+](=O)[O-])cc1)N1CCN(C(=O)c2ccc(C(F)(F)F)cc2)CCC1=O,"inconclusive: 31.6 µM [inhibitor, partial curve, poor fit]",–
O=C(Nc1oc2ccc(Cl)cc2c(=O)c1-c1ccccc1)c1ccc([N+](=O)[O-])cc1,inactive,–
CNc1cccccc1=S,"inconclusive: 1.78 µM [inhibitor, full curve, poor fit]",–
Cc1cnc(NC(=O)c2ccc3c(c2)C(=O)N(Cc2ccco2)C3=O)s1,inactive,–
CCCOc1ccc(CNc2ccc(Oc3ccccc3)cc2)cc1,"inconclusive: 70.8 µM [inhibitor, partial curve, poor fit]",–
COCCn1c(C)cnc1C1CCN(S(=O)(=O)c2ccc(C#N)cc2)C1 (stereo not given),inactive,–

# Shown with bars between the fields: part of the list above.
Compound | Potency | activity change, negative = inhibition
Cc1ccc(Cl)c(OCC(=O)NCc2ccco2)c1 | inconclusive: 56.2 µM [inhibitor, partial curve, poor fit] | –
O=C1c2ccccc2C(Nc2ccc(S(=O)(=O)N3CCOCC3)cc2)N1c1ccccn1 (stereo not given) | inconclusive: 100 µM [inhibitor, partial curve, poor fit] | –
Cc1ccc2[nH]c3c(c2c1)CCCC3NCC12CC3CC(CC(C3)C1)C2 (stereo not given) | inconclusive: 50.1 µM [inhibitor, partial curve, poor fit] | –
O=C(CCCc1c[nH]c2ccccc12)NCc1ccc(Cl)cc1 | inconclusive: 50.1 µM [inhibitor, partial curve, poor fit] | –
O=C(CN1C(=O)c2ccccc2C1=O)c1ccccc1 | inactive | –
CC[C@H]1CN2CCc3cc(OC)c(OC)cc3C2C[C@@H]1C[C@H]1NCCc2cc(OC)c(OC)cc21 (stereo not given in full) | inconclusive: 112 µM [inhibitor, partial curve, poor fit] | –
CCCOc1ccc2c(c1)C(=NN=C(N)N)c1cc(OCCC)ccc1-2 | inconclusive: 50.1 µM [inhibitor, partial curve, poor fit] | –
COc1cccc(CN2C[C@@H]3C(C(=O)O)[C@@H]3C2)c1OCCn1ccnc1 (stereo not given in full) | inconclusive: 14.1 µM [inhibitor, partial curve] | –
COCCN1C(=O)C(=O)/C(=C(/O)c2ccc(OC(C)C)c(C)c2)C1c1ccc(Br)cc1 (stereo not given) | inconclusive: 44.7 µM [inhibitor, partial curve, poor fit] | –
CCN(CC)S(=O)(=O)c1ccc(Cl)c(NC(=O)CSc2nnc(C3CC3)n2C2CC2)c1 | inconclusive: 56.2 µM [inhibitor, partial curve, poor fit] | –
CCOC(=O)N1CCN(c2ccc(C(=O)O)cc2NS(=O)(=O)c2ccc(OC)c(Cl)c2)CC1 | inconclusive: 10 µM [inhibitor, full curve, poor fit] | –
CC(C)[C@H](NC(=O)[C@H](C(C)C)n1nnc2ccccc2c1=O)C(=O)O | – | inconclusive: -30.1% [inhibitor]
O=C(Cc1ccccc1)NC(=S)Nc1cccc(C(F)(F)F)c1 | inconclusive: 44.7 µM [inhibitor, single point] | –
Cc1nn(Cc2ccc(Cl)cc2Cl)c(C)c1NC(=O)Cn1nc([N+](=O)[O-])c(Cl)c1C | inconclusive: 6.31 µM [inhibitor, full curve, poor fit] | –
